Measurements published in article PMC6449396.
These are yes or no findings as the source states them, for the method shown. In cells and extracts the contact can be indirect. Some entries that bind do so weakly or less than the wild type. For some of these results: Sequences can lack the tags named with a protein. Values belong to the binder of their own block, whether it stands above or below them.

Sequences of proteins named here, by UniProt entry; tags and fusion partners are left off. A change or cut given only in a name is not applied to a line headed by its entry. A line that says so, or that is headed by a name, gives the form on record, which may keep a tag or linker. Residues count along the entry.
HA-tagged PML aa 1–229 (P29590, residues 1-229): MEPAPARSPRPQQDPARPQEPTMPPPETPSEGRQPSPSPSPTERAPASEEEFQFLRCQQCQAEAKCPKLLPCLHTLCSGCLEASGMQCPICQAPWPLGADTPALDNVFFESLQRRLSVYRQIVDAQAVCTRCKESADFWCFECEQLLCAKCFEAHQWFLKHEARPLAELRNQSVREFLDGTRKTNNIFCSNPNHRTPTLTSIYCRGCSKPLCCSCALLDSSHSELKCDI
HA-PML (PML-IV), full length (P29590, form named): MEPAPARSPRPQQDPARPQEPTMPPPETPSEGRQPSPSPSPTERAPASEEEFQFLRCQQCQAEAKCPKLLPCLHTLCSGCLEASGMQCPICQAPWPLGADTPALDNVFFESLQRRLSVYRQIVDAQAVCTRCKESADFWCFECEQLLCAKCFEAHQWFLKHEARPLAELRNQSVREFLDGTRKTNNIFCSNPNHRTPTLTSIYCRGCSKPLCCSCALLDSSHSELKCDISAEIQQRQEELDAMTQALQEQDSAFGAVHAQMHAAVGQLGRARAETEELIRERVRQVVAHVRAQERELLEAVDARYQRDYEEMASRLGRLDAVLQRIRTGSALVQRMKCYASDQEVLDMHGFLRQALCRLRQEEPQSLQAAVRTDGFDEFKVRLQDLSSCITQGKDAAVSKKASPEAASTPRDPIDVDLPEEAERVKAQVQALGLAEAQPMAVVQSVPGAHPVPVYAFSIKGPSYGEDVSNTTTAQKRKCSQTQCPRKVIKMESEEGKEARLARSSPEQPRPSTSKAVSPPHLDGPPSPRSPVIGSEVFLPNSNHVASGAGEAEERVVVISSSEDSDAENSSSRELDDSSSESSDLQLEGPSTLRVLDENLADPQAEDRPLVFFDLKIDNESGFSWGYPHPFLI

Assays:
[1] = target: HA-PML (PML-IV), full length (UniProt P29590); assay: co-IP; 293T cells co-transfected with tagged PML, tagged MDM2 and increasing amounts of FL Mad1 or Mad1ΔCTD; extracts 48 h after transfection immunoprecipitated with beads coupled to anti-FLAG antibodies
HA-tagged PML aa 1–229 = HA-tagged PML aa 1–229 (UniProt P29590); assay: co-IP; anti-HA magnetic beads, 5 h at 4 °C; lysates of transiently transfected HEK-293T cells in RIPA buffer; HA-PML constructs as bait, FLAG-tagged Mad1 constructs detected
[2] = target: HA-PML (PML-IV), full length (UniProt P29590); assay: as above

binding [1]: binds
B1: full length (FL) Mad1 of Fig. 6 (protein, UniProt Q9Y6D9 1-718)
chain: MEDLGENTMVLSTLRSLNNFISQRVEGGSGLDISTSAPGSLQMQYQQSMQLEERAEQIRSKSHLIQVEREKMQMELSHKRARVELERAASTSARNYEREVDRNQELLTRIRQLQEREAGAEEKMQEQLERNRQCQQNLDAASKRLREKEDSLAQAGETINALKGRISELQWSVMDQEMRVKRLESEKQELQEQLDLQHKKCQEANQKIQELQASQEARADHEQQIKDLEQKLSLQEQDAAIVKNMKSELVRLPRLERELKQLREESAHLREMRETNGLLQEELEGLQRKLGRQEKMQETLVGLELENERLLAKLQSWERLDQTMGLSIRTPEDLSRFVVELQQRELALKDKNSAVTSSARGLEKARQQLQEELRQVSGQLLEERKKRETHEALARRLQKRVLLLTKERDGMRAILGSYDSELTPAEYSPQLTRRMREAEDMVQKVHSHSAEMEAQLSQALEELGGQKQRADMLEMELKMLKSQSSSAEQSFLFSREEADTLRLKVEELEGERSRLEEEKRMLEAQLERRALQGDYDQSRTKVLHMSLNPTSVARQRLREDHSQLQAECERLRGLLRAMERGGTVPADLEAAAASLPSSKEVAELKKQVESAELKNQRLKEVFQTKIQEFRKACYTLTGYQIDITTENQYRLTSLYAEHPGDCLIFKATSPSGSKMQLLETEFSHTVGELIEVHLRRQDSIPAFLSSLTLELFSRQTVA

binding (HA-tagged PML aa 1–229): binds | binding [2]: binds
B2: Mad1-3xFLAG, full length wild type (protein, UniProt Q9Y6D9 1-718)
chain: B1 chain

binding [2]: binds
B3: Mad1 aa 180–718, FLAG-tagged fragment (domain or fragment, UniProt Q9Y6D9 180-718)
chain: VKRLESEKQELQEQLDLQHKKCQEANQKIQELQASQEARADHEQQIKDLEQKLSLQEQDAAIVKNMKSELVRLPRLERELKQLREESAHLREMRETNGLLQEELEGLQRKLGRQEKMQETLVGLELENERLLAKLQSWERLDQTMGLSIRTPEDLSRFVVELQQRELALKDKNSAVTSSARGLEKARQQLQEELRQVSGQLLEERKKRETHEALARRLQKRVLLLTKERDGMRAILGSYDSELTPAEYSPQLTRRMREAEDMVQKVHSHSAEMEAQLSQALEELGGQKQRADMLEMELKMLKSQSSSAEQSFLFSREEADTLRLKVEELEGERSRLEEEKRMLEAQLERRALQGDYDQSRTKVLHMSLNPTSVARQRLREDHSQLQAECERLRGLLRAMERGGTVPADLEAAAASLPSSKEVAELKKQVESAELKNQRLKEVFQTKIQEFRKACYTLTGYQIDITTENQYRLTSLYAEHPGDCLIFKATSPSGSKMQLLETEFSHTVGELIEVHLRRQDSIPAFLSSLTLELFSRQTVA
